Entries after “also recorded” stand apart in the source; their conditions may differ. At least one structure is not confirmed: it was looked up by name or label, or the drawing left a doubt.
Assays:
[1] = test system: cytokines (IL-1, IL-6, RANKL and MCP-1) and a matrix metalloproteinase (MMP-9); assay: Paw extract biomarker ELISA, CIA mice: whole panel (statements in words); assay type: in vivo, mouse
Procedure: • 1. Male DBA/1 mice were immunized i.d. with an emulsion of 200 μg bovine type II collagen in Complete Freund's Adjuvant. • 2. On day 21, mice received i.d. boost of 100 μg collagen in Incomplete Freund's Adjuvant • 3. Compounds were administered i.p. daily for 7 days starting from disease onset (day 3-4 after boost). • 4. Foot swelling was measured by an engineering micrometer and disease severity was scored accordingly (1, erythema and mild swelling confined to the tarsal or ankle joint; 2, erythema and mild swelling extending from the ankle to the mid-foot; 3, erythema and moderate swelling extending from the ankle to the metatarsal joints; 4, erythema and severe swelling encompassing the ankle, foot, and digits). • 5. Change (Δ) of paw thickness=sum of paw thickness from 4 paws of a mouse (experimental)−sum of baseline paw thickness from 4 paws of the same mouse. • 6. % inhibition=cumulative A paw thickness (disease group−compound-treated group)/cumulative A paw thickness (disease group)
• 1. Paws were collected from mice after 5-7 days of dosing and dissected free of skin. • 2. The paws were then homogenized in ice-cold PBS (2 ml/4 paws/mouse) containing 1× protease inhibitor using a Polytron homogenizer. • 3. Debris and particles were removed from the homogenized samples by centrifugation. • 4. […]

[2] = test system: rheumatoid arthritis; conditions: double-blind, placebo-controlled trials; clinical studies; cited from earlier work

| SMILES | Footpad tissue levels of cytokines (IL-1, IL-6, RANKL and MCP-1) and MMP-9 after therapeutic treatment [1] | effect of minocycline treatment in rheumatoid arthritis patients [2] |
| --- | --- | --- |
| C[C@@H]1C[C@H]2[C@@H]3CCC4=CC(=O)C=C[C@]4(C)[C@@]3(F)[C@@H](O)C[C@]2(C)[C@@]1(O)C(=O)CO [Dexamethasone, dexamethasone, reference compound] | decreased |  |
| CN(C)c1ccc(O)c2c1C[C@H]1C[C@H]3[C@H](N(C)C)C(O)=C(C(N)=O)C(=O)[C@@]3(O)C(O)=C1C2=O [Minocycline, minocycline, reference compound] | but not | can improve disease symptoms; also recorded: respond positively |
